# Laboratory results reported in the supplement of paper PMC8728848.
# The list shows a part of the results.
# B1: MtEccB1 (Mycobacterium tuberculosis H37Rv), O69734 (protein)
# chain: MGLRLTTKVQVSGWRFLLRRLEHAIVRRDTRMFDDPLQFYSRSIALGIVVAVLILAGAALLAYFKPQGKLGGTSLFTDRATNQLYVLLSGQLHPVYNLTSARLVLGNPANPATVKSSELSKLPMGQTVGIPGAPYATPVSAGSTSIWTLCDTVARADSTSPVVQTAVIAMPLEIDASIDPLQSHEAVLVSYQGETWIVTTKGRHAIDLTDRALTSSMGIPVTARPTPISEGMFNALPDMGPWQLPPIPAAGAPNSLGLPDDLVIGSVFQIHTDKGPQYYVVLPDGIAQVNATTAAALRATQAHGLVAPPAMVPSLVVRIAERVYPSPLPDEPLKIVSRPQDPALCWSWQRSAGDQSPQSTVLSGRHLPISPSAMNMGIKQIHGTATVYLDGGKFVALQSPDPRYTESMYYIDPQGVRYGVPNAETAKSLGLSSPQNAPWEIVRLLVDGPVLSKDAALLEHDTLPADPSPRKVPAGASGAP
# What was measured:
# Experiment in all cases: glycan array binding signal (z-score within array); higher = stronger binding
# Settings in all cases: glycan notation: IUPAC condensed, linker removed
# [1] = molecular target: Fuc(a1-2)Gal(b1-4)GlcNAc(b1-3)Gal(b1-4)GlcNAc(b1-2)Man(a1-3)[Fuc(a1-2)Gal(b1-4)GlcNAc(b1-3)Gal(b1-4)GlcNAc(b1-2)Man(a1-6)]Man(b1-4)GlcNAc(b1-4)GlcNAc
# In short: (§1)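 Negative Z-scores can be read as non-binding. The Z-score is calculated within each array and then averaged across arrays of one protein sequence at different concentrations or buffers and across linkers. Arrays, 3228 in all, were curated from the Consortium for Functional Glycomics database and kept only where the protein sequence was available.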
# [2] = molecular target: Fuc(a1-2)Gal(b1-4)GlcNAc(b1-3)Gal(b1-4)GlcNAc(b1-3)Gal(b1-4)GlcNAc
# In short: as §1
# [3] = molecular target: Fuc(a1-2)Gal(b1-4)GlcNAc(b1-3)GalNAc
# In short: as §1
# [4] = molecular target: Fuc(a1-2)Gal(b1-4)GlcNAc(b1-3)[Fuc(a1-2)Gal(b1-4)GlcNAc(b1-6)]GalNAc
# In short: as §1
# [5] = molecular target: Fuc(a1-2)Gal(b1-4)GlcNAc(b1-3)[Fuc(a1-3)[Gal(b1-4)]GlcNAc(b1-6)]Gal(b1-4)Glc
# In short: as §1
# [6] = molecular target: Fuc(a1-2)Gal(b1-4)GlcNAc(b1-6)GalNAc
# In short: as §1
# [7] = molecular target: Fuc(a1-2)Gal(b1-4)GlcNAc6S
# In short: as §1
# [8] = molecular target: Fuc(a1-2)Gal(b1-4)[Fuc(a1-3)]GlcNAc
# In short: as §1
# [9] = molecular target: Fuc(a1-2)Gal(b1-4)[Fuc(a1-3)]GlcNAc(b1-2)Man(a1-3)[Fuc(a1-2)Gal(b1-4)[Fuc(a1-3)]GlcNAc(b1-2)Man(a1-6)]Man(b1-4)GlcNAc(b1-4)[Fuc(a1-6)]GlcNAc
# In short: as §1
# [10] = molecular target: Fuc(a1-2)Gal(b1-4)[Fuc(a1-3)]GlcNAc(b1-2)[Fuc(a1-2)Gal(b1-4)[Fuc(a1-3)]GlcNAc(b1-4)]Man(a1-3)[Fuc(a1-2)Gal(b1-4)[Fuc(a1-3)]GlcNAc(b1-2)Man(a1-6)]Man(b1-4)GlcNAc(b1-4)GlcNAc
# In short: as §1
# [11] = molecular target: Fuc(a1-2)Gal(b1-4)[Fuc(a1-3)]GlcNAc(b1-3)Gal(b1-4)[Fuc(a1-3)]GlcNAc
# In short: as §1
# [12] = molecular target: Fuc(a1-2)Gal(b1-4)[Fuc(a1-3)]GlcNAc(b1-3)Gal(b1-4)[Fuc(a1-3)]GlcNAc(b1-3)Gal(b1-4)[Fuc(a1-3)]GlcNAc
# In short: as §1
# [13] = molecular target: Fuc(a1-2)Gal(b1-4)[Fuc(a1-3)]GlcNAc(b1-3)GalNAc
# In short: as §1
# [14] = molecular target: Fuc(a1-2)Gal(b1-4)[Fuc(a1-3)]GlcNAc(b1-3)[Neu5Ac(a2-6)Gal(b1-4)GlcNAc(b1-6)]Gal(b1-4)Glc
# In short: as §1
# [15] = molecular target: Fuc(a1-2)Gal3S(b1-4)GlcNAc
# In short: as §1
# [16] = molecular target: Fuc(a1-2)Gal6S(b1-3)GlcNAc
# In short: as §1
# [17] = molecular target: Fuc(a1-2)Gal6S(b1-3)GlcNAc6S
# In short: as §1
# Fuc(a1-2)Gal6S(b1-4)Glc = molecular target: Fuc(a1-2)Gal6S(b1-4)Glc
# In short: as §1
# [18] = molecular target: Fuc(a1-2)Gal6S(b1-4)Glc6S
# In short: as §1
# Fuc(a1-2)[Gal(a1-3)]Gal = molecular target: Fuc(a1-2)[Gal(a1-3)]Gal
# In short: as §1
# [19] = molecular target: Fuc(a1-2)[Gal(a1-3)]Gal(b1-3)GalNAc
# In short: as §1
# [20] = molecular target: Fuc(a1-2)[Gal(a1-3)]Gal(b1-3)GalNAc(b1-3)Gal(a1-4)Gal(b1-4)Glc
# In short: as §1
# [21] = molecular target: Fuc(a1-2)[Gal(a1-3)]Gal(b1-3)GlcNAc
# In short: as §1
# [22] = molecular target: Fuc(a1-2)[Gal(a1-3)]Gal(b1-3)GlcNAc(b1-2)Man(a1-3)[Fuc(a1-2)[Gal(a1-3)]Gal(b1-3)GlcNAc(b1-2)Man(a1-6)]Man(b1-4)GlcNAc(b1-4)GlcNAc
# In short: as §1
# [23] = molecular target: Fuc(a1-2)[Gal(a1-3)]Gal(b1-3)GlcNAc(b1-2)Man(a1-3)[Fuc(a1-2)[Gal(a1-3)]Gal(b1-3)GlcNAc(b1-2)Man(a1-6)]Man(b1-4)GlcNAc(b1-4)[Fuc(a1-6)]GlcNAc
# In short: as §1
# [24] = molecular target: Fuc(a1-2)[Gal(a1-3)]Gal(b1-3)GlcNAc(b1-3)GalNAc
# In short: as §1
# [25] = molecular target: Fuc(a1-2)[Gal(a1-3)]Gal(b1-3)GlcNAc(b1-6)GalNAc
# In short: as §1
# [26] = molecular target: Fuc(a1-2)[Gal(a1-3)]Gal(b1-4)Glc
# In short: as §1
# [27] = molecular target: Fuc(a1-2)[Gal(a1-3)]Gal(b1-4)GlcNAc
# In short: as §1
# [28] = molecular target: Fuc(a1-2)[Gal(a1-3)]Gal(b1-4)GlcNAc(b1-2)Man
# In short: as §1
binder,measurement,setting,value
B1,glycan array binding signal (z-score),[1],0.811
same,glycan array binding signal (z-score),[2],-0.074
same,glycan array binding signal (z-score),[3],1.3
same,glycan array binding signal (z-score),[4],-0.809
same,glycan array binding signal (z-score),[5],-0.648
same,glycan array binding signal (z-score),[6],-0.427
same,glycan array binding signal (z-score),[7],-0.449
same,glycan array binding signal (z-score),[8],-0.615
same,glycan array binding signal (z-score),[9],1.44
same,glycan array binding signal (z-score),[10],-0.781
same,glycan array binding signal (z-score),[11],0.129
same,glycan array binding signal (z-score),[12],-0.064
same,glycan array binding signal (z-score),[13],-0.518
same,glycan array binding signal (z-score),[14],-0.907
same,glycan array binding signal (z-score),[15],-1.19
same,glycan array binding signal (z-score),[16],-1.26
same,glycan array binding signal (z-score),[17],0.05
same,glycan array binding signal (z-score),Fuc(a1-2)Gal6S(b1-4)Glc,-1.2
same,glycan array binding signal (z-score),[18],-0.258
same,glycan array binding signal (z-score),Fuc(a1-2)[Gal(a1-3)]Gal,-0.098
same,glycan array binding signal (z-score),[19],0.697
same,glycan array binding signal (z-score),[20],0.182
same,glycan array binding signal (z-score),[21],-1.22
same,glycan array binding signal (z-score),[22],-0.315
same,glycan array binding signal (z-score),[23],-2.15
same,glycan array binding signal (z-score),[24],0.379
same,glycan array binding signal (z-score),[25],0.385
same,glycan array binding signal (z-score),[26],0.151
same,glycan array binding signal (z-score),[27],-0.401
same,glycan array binding signal (z-score),[28],-1.29

# A stretch taken from the entries so far, as a working copy:
binder,measurement,setting,value
B1,glycan array binding signal (z-score),[14],-0.907
same,glycan array binding signal (z-score),[15],-1.19
